Reference: PubChem BioAssay AID540256 (National Center for Advancing Translational Sciences (NCATS), 2011)
“And” between values parts separate entries of the source, which are not always exact repeats. Equal values may be shown once. Out of some 300,000 compounds screened, about 3,700 (1.2%) were called active. Inconclusive results, whose numbers are uncertain, are shown with a selection of clear calls. Calls follow the shape of the full dose curve; tested in HEK293 cells. Potencies beside an inconclusive call are fits to weak or partial responses and may not hold up.

Assay: qHTS for Inhibitors of binding or entry into cells for Lassa Virus; also: nearly all actives have a fitted effect of over 50% in size
Conditions: Lassa virus pseudotype entry inhibition, cell reporter; activity change, negative = inhibition: at 37.9 µM (top of the series) unless noted
% is scaled to controls: 0 for no effect and ±100 for the full control effect; potency is read from the fitted curve at half-maximal effect.

| Structure (SMILES) | Potency | activity change, negative = inhibition |
| --- | --- | --- |
| Cc1cc(N2CCN(S(=O)(=O)c3ccc(Cl)cc3)CC2)c2ccccc2n1 | active: 16.4 µM | – |
| CC(C)(C)c1ccc(C(=O)NC(=S)NCc2cccnc2)cc1 | inconclusive: 29.1 µM [inhibitor, single point] | – |
| O=C(c1ccc2ccccc2n1)N1CCN(Cc2c(F)cccc2Cl)CC1 | – | inactive: -10.9% |
| CCc1ccc(NC(=O)CSc2nc3ccccc3c(=O)n2CCCC(=O)N2CCCC2)cc1 | active: 25.9 µM | – |
| Cc1ccc(NC(=O)c2cccs2)cc1 | – | inactive: -1.64% |
| C[C@H]1CCCC(=O)CCCCCc2cc(O)cc(O)c2C(=O)O1 | inconclusive: 25.9 µM [inhibitor, partial curve, poor fit] | – |
| CCOc1ccccc1NC(=O)c1nnn(-c2ccc3c(c2)OCCO3)c1N | – | inactive: 0.191% |
| Cc1ccc(S(=O)(=O)N(CC(=O)N=Nc2c(O)[nH]c3ccccc23)c2ccc(C)c(C)c2)cc1 | inconclusive: 16.4 µM [inhibitor, single point] and inconclusive: 12.6 µM [inhibitor, partial curve] | – |
| COc1cc(CNCc2ccccn2)ccc1OCc1ccc(Cl)cc1Cl | – | inactive: -3.74% |
| Oc1ccc(Br)cc1CNc1cccc2cccnc12 | inconclusive: 35.5 µM [inhibitor, single point] | – |
| COc1cc(C(=O)O/N=C(\N)Cc2ccc([N+](=O)[O-])cc2)cc(OC)c1OC | active: 3.16 µM | – |
| O=S(=O)(/N=C(\Nc1ccc(F)cc1)C(F)(F)F)c1ccccc1 | – | inactive: 3.48% |
| COc1ccccc1C(=O)Nn1cnc2ccccc2c1=O | inconclusive: 6.51 µM [activator, partial curve, poor fit] | – |
| O=C(Nc1ccc2c(c1)OCCO2)c1cnc2ccccn2c1=O | inconclusive: 10.3 µM [inhibitor, partial curve, poor fit] | – |
| CC1CCC/C(=N/NC(=O)c2ccccc2-n2cccc2)C1 (stereo unspecified) | – | inactive: -16.7% |
| c1ccc(Cn2c(SCc3nc4ccccc4s3)nnc2-c2ccco2)cc1 | inconclusive: 14.1 µM [inhibitor, single point] | – |
| CCCN1CCc2c(sc(NC(=O)c3ccc(S(=O)(=O)N(C)c4ccccc4)cc3)c2C(=O)NC)C1 | inconclusive: 25.1 µM [inhibitor, partial curve, poor fit] | – |
| O=C(N1CCOCC1)C12CC3CC(C1)CC(C(=O)N1CCOCC1)(C3)C2 | – | inactive: 2.55% |
| CC(C)c1nnc(NC(=O)C2CCCN2C(=O)Nc2cccc(Cl)c2)s1 (stereo unspecified) | – | inactive: 0.406% [at 46.1 µM] |
| CCC(=O)OCCNc1nc(-c2ccccc2)nc2ccccc12 | – | inactive: -0.495% [at 46.1 µM] |
| O=C(Nc1ccc2c(c1)OCO2)N1CCN(C(=O)C2CCCO2)CC1 (stereo unspecified) | inconclusive: 29.1 µM [activator, single point] | – |
| O=S1(=O)C=C(Oc2ccc3ccccc3c2)c2ccccc21 | inconclusive: 25.9 µM [inhibitor, partial curve] | – |
| COc1cccc(OCC(=O)NCCS(=O)(=O)N2CCN(c3ccccc3F)CC2)c1 | inconclusive: 6.31 µM [inhibitor, partial curve, poor fit] | – |
| COc1ccc(C(=O)NNC(=O)CSc2nnc(COc3ccc4ccccc4c3)n2C)cc1 | inconclusive: 3.66 µM [inhibitor, partial curve, poor fit] | – |

Two of the compounds above, with bars between the fields:
Structure (SMILES) | Potency | activity change, negative = inhibition
O=C(c1ccc2ccccc2n1)N1CCN(Cc2c(F)cccc2Cl)CC1 | – | inactive: -10.9%
Cc1ccc(NC(=O)c2cccs2)cc1 | – | inactive: -1.64%

Next part:

| Structure (SMILES) | Potency | activity change, negative = inhibition |
| --- | --- | --- |
| O=S(=O)(/N=C(\c1ccccc1)N1CCOCC1)c1ccc(Cl)cc1 | inconclusive: 3.55 µM [inhibitor, single point] | – |
| Oc1ccc(/C(Cc2ccccn2)=N\Nc2ccccc2)c(O)c1 | inconclusive: 10 µM [inhibitor, partial curve, poor fit] | – |
| CC(C)(C)C(=O)/C(=C/c1ccncc1)n1cncn1 | active: 10.3 µM | – |
| Cc1cccc(C)c1NC(=O)c1cccc(N2C(=O)C3CCC(C)CC3C2=O)c1 (stereo unspecified) | – | inactive: 0.566% |
| COC(=O)c1cc2occc2n1CC(=O)Nc1ccc(OC)c(OC)c1OC | – | inactive: 1.19% |
| O=C(Nc1ccccc1F)c1ccc(S(=O)(=O)NCC2CCCO2)cc1 (stereo unspecified) | inconclusive: 29.1 µM [inhibitor, single point] | – |
| COc1cc2c(cc1OC)/C(=C/C(=O)c1ccc(F)cc1)NCC2 | inconclusive: 10 µM [inhibitor, partial curve] | – |
| CCN1CCN(c2nc(-c3ccccc3)c3ccccc3n2)CC1 | inconclusive: 11.2 µM [inhibitor, partial curve, poor fit] | – |
| O=C(OCC12CC3CC(CC(C3)C1)C2)c1ccc(NCc2cc(O)ccc2O)cc1 | active: 4.47 µM | – |
| Cc1cccc(NC(=O)c2onc3c2CCCC3)n1 | inconclusive: 1.41 µM [inhibitor, full curve, poor fit] | – |
| Cc1ccc(NC2=C/C(=N/S(=O)(=O)c3cccs3)c3ccccc3C2=O)cc1 | active: 4.11 µM | – |
| Cc1csc(NC(=S)Nc2cccc(Cl)c2)n1 | inconclusive: 28.2 µM [inhibitor, partial curve, poor fit] | – |
| O=C(CC(NC(=O)c1ccccc1Cl)c1ccccc1)NC1=NCCS1 (stereo unspecified) | inconclusive: 14.1 µM [activator, partial curve, poor fit] | – |
| COc1ccc(C(=O)Nc2ccc(Br)cc2F)cc1S(=O)(=O)N1CCCC1 | inconclusive: 35.5 µM [inhibitor, single point] | – |
| Clc1ccc(CSc2snnc2-c2ccccc2)cc1 | – | inactive: -36% |
| O=C(CCCc1cccs1)Nc1nc(-c2ccc(F)cc2)cs1 | inconclusive: 2.51 µM [inhibitor, full curve] | – |
| CCn1c(-c2nonc2N)nc2cnc(Oc3cccc(NC(=O)c4ccc(OCCN5CCOCC5)cc4)c3)cc21 | active: 19.9 µM | – |
| CCc1nn2c(=O)cc(COC(=O)c3ccc(NC(=O)COc4ccc(C)cc4)cc3)nc2s1 | inconclusive: 17.8 µM [activator, partial curve, poor fit] | – |
| COc1cc(C(=O)NC(=S)Nc2ccc3c(c2)OCO3)cc(OC)c1OC | inconclusive: 0.631 µM [inhibitor, single point] | – |
| Cc1ccc(-c2nnc(N3CCN(C(=O)Cn4c(=O)n(C)c5ccccc54)CC3)c3ccccc23)cc1 | inconclusive: 29.1 µM [inhibitor, single point] | – |
| CCN(CC)S(=O)(=O)c1cccc(-c2nnc(SCc3nc4ccccc4s3)o2)c1 | inconclusive: 20 µM [inhibitor, single point] | – |
| O=C(/C=C/c1ccc([N+](=O)[O-])cc1)Nc1ncc([N+](=O)[O-])s1 | inconclusive: 14.6 µM [inhibitor, single point] | – |
| N#Cc1cc(N)ccc1Sc1ccc(Cl)cc1 | – | inactive: -13.8% |
| Cc1ccccc1OCCSc1nnc(C)n1-c1ccccc1 | inconclusive: 1.3 µM [inhibitor, full curve] | – |

Some of the entries above in another layout.
Structure (SMILES),Potency,"activity change, negative = inhibition"
C[C@H]1CCCC(=O)CCCCCc2cc(O)cc(O)c2C(=O)O1,"inconclusive: 25.9 µM [inhibitor, partial curve, poor fit]",–
COc1cc2c(cc1OC)/C(=C/C(=O)c1ccc(F)cc1)NCC2,"inconclusive: 10 µM [inhibitor, partial curve]",–
COc1ccc(C(=O)Nc2ccc(Br)cc2F)cc1S(=O)(=O)N1CCCC1,"inconclusive: 35.5 µM [inhibitor, single point]",–
Cc1ccc(-c2nnc(N3CCN(C(=O)Cn4c(=O)n(C)c5ccccc54)CC3)c3ccccc23)cc1,"inconclusive: 29.1 µM [inhibitor, single point]",–

Next part:

| Structure (SMILES) | Potency | activity change, negative = inhibition |
| --- | --- | --- |
| Cc1nc(NCCCO)c(C#N)c2c1COC(C)(C)C2 | inconclusive: 6.51 µM [inhibitor, partial curve, poor fit] | – |
| Cc1ccc(N2C(=NC(=O)c3ccccc3)SC3CS(=O)(=O)CC32)cc1 (stereo unspecified) | inconclusive: 31.6 µM [activator, partial curve, poor fit] | – |
| CCN(CC)c1c([N+](=O)[O-])c(=O)sc2ccccc12 | inconclusive: 32.6 µM [activator, partial curve, poor fit] | – |
| CCOc1ccc(CNC(=O)CC(C)n2nc(C)cc2C)cc1OC (stereo unspecified) | – | inactive: 9.59% [at 46.1 µM] |
| Cc1cccc(Nc2nnc(SCC(O)=C(C#N)c3nc4ccccc4[nH]3)s2)c1 | inconclusive: 3.98 µM [activator, full curve, poor fit] | – |
| COC(=O)c1ccccc1-c1ccc(/C=N/Nc2nc(N3CCCC3)nc(N3CCCC3)n2)o1 | inconclusive: 35.5 µM [inhibitor, single point] | – |
| COc1ccc(-c2ccc(OC)c(OC)c2OC)c(OC)c1OC | inconclusive: 0.112 µM [inhibitor, full curve, poor fit] | – |
| COc1ccccc1OC(C)C(=O)N1CC(=O)Nc2ccccc21 (stereo unspecified) | – | inactive: -19.8% [at 46.1 µM] |
| O=[N+]([O-])c1ccc(N/N=C/c2ccccc2)cc1 | inconclusive: 22.4 µM [activator, single point] | – |
| Nn1c(Cc2cccc3ccccc23)nnc1SCc1c(F)cccc1Cl | – | inactive: -7.28% |
| COc1ccc(CNc2ccccc2SC)cc1OC | – | inactive: -9.2% |
| Cc1cccc(C)c1OCc1cc(=O)n2c3c(sc2n1)CCCC3 | – | inactive: -23.6% [at 46.1 µM] |
| CCCc1nnc(NC(=O)c2ccncc2)s1 | inconclusive: 29.1 µM [activator, single point] | – |
| CCN(CC)c1ccc(C(=O)OCC(=O)Nc2sccc2C#N)cc1 | inconclusive: 20 µM [activator, single point] | – |
| COc1cc(/C=N/Nc2ccccn2)cc(OC)c1O | active: 7.94 µM | – |
| O=C(Cc1cccs1)N1CCN(c2cccc(Cl)c2)CC1 | inconclusive: 10 µM [inhibitor, partial curve, poor fit] | – |
| O=C(NC(Cc1ccccc1)c1ccc2c(c1)OCCCO2)c1ccc(F)cc1 (stereo unspecified) | – | inactive: -23% |
| CN(C)S(=O)(=O)N1CCC(Oc2cccc(C(=O)N3CCCCCCC3)c2)CC1 | active: 11.2 µM | – |
| O=C(COC(=O)c1cc(Cl)ccc1Cl)NCCN1C(=O)CSC1=O | inconclusive: 35.5 µM [activator, partial curve, poor fit] | – |
| COc1ccc(-n2cc(-c3ccccc3)c3c(NC4CCCC4)ncnc32)cc1 | inconclusive: 6.31 µM [inhibitor, single point] | – |
| O=C(O)Cc1ccc(S(=O)(=O)N2CCCC2)s1 | – | inactive: -2.08% [at 46.1 µM] |
| COc1cc(/C=N\NC(=O)CC(=O)NCCc2ccccc2)ccc1O | – | inactive: -13.1% |
| CC(C)OP(=O)(OC(C)C)C(O)c1ccccc1F (stereo unspecified) | inconclusive: 35.5 µM [activator, single point] | – |
